Measured values: publication PMC10096123, “14-Substituted Diquinothiazines as a New Group of Anticancer Agents” (Molecules, 2023)

Columns and labels:
Type in all cases: cell-based, human
HCT116 cells = assay: 72-h MTT viability assay, HCT116; details: selectivity index, apparently IC50 BEAS-2B / IC50 HCT116; definition not given
Excerpt: (§1) The IC50 for cell viability was described with a dose of the drug, with a 50% reduction in the whole population, when compared to the untreated controls. The obtained results allow for a comparison of different compounds, using the same or different targeted cell lines. Cell survival fractions (SF), followed by the MTT 72-h viability assay for the HCT116 and SH-5YSY cells, are presented in the Supplementary File (Figure S1).
(§2) For cytological studies, human cancer cell lines were chosen, with special emphasis on the colorectal, HCT116, and neuroblastoma SH-5YSY cell lines, as well as lung normal epithelial BEAS-2B and cancer H1299 and A549 cancer cell lines (all obtained from the ATTC collection; Manassas, VA, USA). The cells were harvested under the standard conditions in incubator (5% CO2, 37 °C and 60% humidity; Panasonic model MCO-19 AIC). Cells were cultured in T75 mL sterile bottles (Sartedt), using DMEM-F12 medium (Merck, Poznań, Poland) supplemented with 10% of Fetal Bovine Serum (EURx, Gdańsk, Poland). During the experimental procedure, each cell line wasn’t more than 60–80% confluenced, no older than maximal number of passages 30. For adherent cell passages, the enzyme trypsin working solution, prepared in sodium phosphate buffer saline (PBS, pH = 7.4; PAN-Biotech Gmbh, Aidenbach, Germany), was used. The tested compounds were prepared as […] stocks in 100% DMSO (Merck, Poznań, Poland), and were stored at −20 °C. Before use in cytological studies, the working solution of each compound was prepared directly in complete DMEM-F12 medium. A positive-control, anticancer drug, etoposide (Merck, Poznań, Poland), was dissolved and prepared as solutions with doses of 20, 10, 5, 2.5, 1.25, 0.63 µM (0 µM for control, untreated cells in DMEM-F12 without any tested compound additions), respectively.
(§3) HCT116 and SH-5YSY cells collected after trypsinization were counted under the Bürker’s chamber, and 2000 or 5000 cells were seeded on each well of the 96-well-format sterile plate (Sarstedt, Nümbrecht, Germany), in 100 µL of complete DMEM-F12 medium, respectively. Twenty-four hours before compound addition, the cells were monitored directly on plates; only well-attached cells were used for treatments with background controls (DMSO with final maximal concentration of 1%) and untreated controls. The normal lung (BEAS-2B) and cancer (H1299 and […]) cell lines were cultured and prepared for viability MTT assay in similar way. To treat wells, 100 µL of tested compounds in fresh medium were added at concentration range of 100, 50, 25, 12.5, 6.25, 3.13 µM (0 µM for control, untreated cells in DMEM-F12 without any tested compound additions). An etoposide as a positive control, as anticancer drug, was prepared in similar way. Followed by 72 h of incubation, the viability assay was performed according to the producer protocol (Promega, Madison, WI, USA), where the medium and compounds were removed and cells were washed with PBS solution. A yellow tetrazolium salt (3-(4,5-dimethylthiazol-2-yl)-2,5-diphenyltetrazolium bromide solution (0.5 mg/mL) in serum and phenol red-free DMEM (Merck, Poznań, Poland) was added to each well on plates at a volume of 50 µL for 2–3 h of darkness, at 37 °C incubation. The purple formazan crystals were produced only by the viable cells, containing NAD (P)H-dependent oxidoreductase enzymes, which reduce the MTT. The crystals were dissolved in acidic (0.04 M HCl) 2-propanolol solution (Merck, Poznań, Poland) after addition of 75 µL of dissolving mixture to each well on plates for 5–10 min in darkness and at room-temperature (RT) incubation. The absorption at 570 nm was measured directly using multiplate reader (Epoch, BioTek, Winooski, VT, USA). Each time, the biological experiments were repeated three times.
(§4) Obtained absorbance was analyzed for proliferation and survival fraction (SF) assessments, where tested samples were compared to the untreated controls (100%). […]

SH-SY5Y cells = assay: 72-h MTT viability assay, SH-SY5Y; details: selectivity index, apparently IC50 BEAS-2B / IC50 SH-SY5Y; definition not given
Excerpt: as §1, §2, §3, §4

A549 cells = assay: 72-h MTT viability assay, A549; details: selectivity index, apparently IC50 BEAS-2B / IC50 A549; definition not given
Excerpt: as §1, §2, §3, §4

H1299 cells = assay: 72-h MTT viability assay, H1299; details: selectivity index, apparently IC50 BEAS-2B / IC50 H1299; definition not given
Excerpt: as §1, §2, §3, §4

| SMILES | SI (HCT116) (HCT116 cells) | SI (SH-SY5Y) (SH-SY5Y cells) | SI (A549) (A549 cells) | SI (H1299) (H1299 cells) |
| --- | --- | --- | --- | --- |
| c1ccc2c3c(cnc2c1)Sc1cnc2ccccc2c1N3CCN1CCCC1 [Compound 2a, 14-(pyrrolidinylethyl)diquinothiazine] | 7.6 | 13 | 6.3 | 10.4 |
| O=C1CCCN1CCCN1c2c(cnc3ccccc23)Sc2cnc3ccccc3c21 [Compound 2b, 14-(pyrrolidinonylpropyl)diquinothiazine] | 8.9 | 10.8 | 6.7 | 15.8 |
| c1ccc2c3c(cnc2c1)Sc1cnc2ccccc2c1N3CCN1CCOCC1 [Compound 2d] | 5 | 8.7 | 5.7 | 13.2 |
| c1ccc2c3c(cnc2c1)Sc1cnc2ccccc2c1N3CCN1CCNCC1 [Compound 2e, 14-(piperazinyloethyl)dichinotiazyny] | 2.5 | 5.4 | 2.6 | 3.8 |
| CCN(CC)CCN1c2c(cnc3ccccc23)Sc2cnc3ccccc3c21 [Compound 2f] | 7.2 | – | 4.4 | 5.5 |
| FC(F)(F)c1ccc(N2c3c(cnc4ccccc34)Sc3cnc4ccccc4c32)cc1 [Compound 3b, 14-(4-trifluoromethylphenyl)diquinothiazine] | 5.0 | – | 2.0 | 5.9 |
| CSc1ccc(N2c3c(cnc4ccccc34)Sc3cnc4ccccc4c32)cc1 [Compound 3c, 14-(methylthiophenyl)diquinothiazine] | 30 | – | 4.0 | 43.1 |
| CC(=O)NCCN1c2c(cnc3ccccc23)Sc2cnc3ccccc3c21 [Compound 5a, 14-acetylaminoethyldiquinothiazine] | 4.1 | 4.4 | 1.5 | 4.1 |
| CC(=O)NCCCN1c2c(cnc3ccccc23)Sc2cnc3ccccc3c21 [Compound 5b, 14-acetylaminopropyldiquinothiazine] | 4.9 | 4.1 | 1.5 | 3.7 |
| COc1cc([C@@H]2c3cc4c(cc3[C@@H](O[C@@H]3O[C@@H]5CO[C@@H](C)O[C@H]5[C@H](O)[C@H]3O)[C@H]3COC(=O)[C@H]23)OCO4)cc(OC)c1O [etoposide, reference compound] | 0.0004 | 0.001 | 0.001 | 0.005 |
